According to PMC7196576, “Structural changes of a bacteriophage upon DNA packaging and maturation” (Protein & Cell, 2020):
Results are given in words; binding and its absence hold for the method and conditions named. Some entries that bind do so weakly or less than the wild type.

Amino acid sequences for entries named in this document (tags omitted).
UniProt P19726: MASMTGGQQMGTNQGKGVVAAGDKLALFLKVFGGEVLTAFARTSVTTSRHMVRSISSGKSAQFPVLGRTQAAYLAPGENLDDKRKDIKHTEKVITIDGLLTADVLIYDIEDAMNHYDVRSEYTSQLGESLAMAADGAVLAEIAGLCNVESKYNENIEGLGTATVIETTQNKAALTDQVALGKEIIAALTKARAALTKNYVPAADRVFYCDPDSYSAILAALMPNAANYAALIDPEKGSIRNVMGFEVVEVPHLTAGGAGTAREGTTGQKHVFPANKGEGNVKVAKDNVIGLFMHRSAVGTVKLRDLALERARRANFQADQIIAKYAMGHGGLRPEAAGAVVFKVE

Columns and labels:
[1] = target: capsid shell protein gp10 of bacteriophage T7 (Escherichia coli bacteriophage T7) (UniProt P19726); test: cryo-EM structure; DNA-free T7 capsid II particles (DNA packaging intermediate) purified from cells; asymmetric reconstruction about 10 Å, local reconstruction of the portal 4.9 Å
[2] = target: capsid shell protein gp10 of bacteriophage T7 (Escherichia coli bacteriophage T7) (UniProt P19726); test: cryo-EM structure; mature T7 phage purified from cells; icosahedral, symmetry-mismatch and local reconstructions (shell 3.5 Å, asymmetric 7 Å, portal-tail complex 3.8 Å, core 6.0 Å)
[3] = target: capsid shell protein gp10 of bacteriophage T7 (Escherichia coli bacteriophage T7) (UniProt P19726); test: cryo-EM structure; DNA-free T7 capsid II particles (DNA packaging intermediate) purified from cells; asymmetric reconstruction about 10 Å, local reconstruction of the portal 4.9 Å; remark: listed apart in the source
[4] = target: capsid shell protein gp10 of bacteriophage T7 (Escherichia coli bacteriophage T7) (UniProt P19726); test: cryo-EM structure; mature T7 phage purified from cells; icosahedral, symmetry-mismatch and local reconstructions (shell 3.5 Å, asymmetric 7 Å, portal-tail complex 3.8 Å, core 6.0 Å); remark: listed apart in the source
[5] = target: T1, adaptor protein gp11 of bacteriophage T7 (Escherichia coli bacteriophage T7) (UniProt P03746); test: as above
T1 sequence: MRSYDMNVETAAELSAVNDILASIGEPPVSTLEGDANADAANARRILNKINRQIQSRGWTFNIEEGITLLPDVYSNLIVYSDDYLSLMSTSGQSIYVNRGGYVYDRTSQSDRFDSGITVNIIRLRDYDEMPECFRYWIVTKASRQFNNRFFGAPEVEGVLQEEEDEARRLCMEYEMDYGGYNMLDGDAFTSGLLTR

[6] = target: T2, portal protein gp8 of bacteriophage T7 (Escherichia coli bacteriophage T7) (UniProt P03728); test: as above
T2 sequence: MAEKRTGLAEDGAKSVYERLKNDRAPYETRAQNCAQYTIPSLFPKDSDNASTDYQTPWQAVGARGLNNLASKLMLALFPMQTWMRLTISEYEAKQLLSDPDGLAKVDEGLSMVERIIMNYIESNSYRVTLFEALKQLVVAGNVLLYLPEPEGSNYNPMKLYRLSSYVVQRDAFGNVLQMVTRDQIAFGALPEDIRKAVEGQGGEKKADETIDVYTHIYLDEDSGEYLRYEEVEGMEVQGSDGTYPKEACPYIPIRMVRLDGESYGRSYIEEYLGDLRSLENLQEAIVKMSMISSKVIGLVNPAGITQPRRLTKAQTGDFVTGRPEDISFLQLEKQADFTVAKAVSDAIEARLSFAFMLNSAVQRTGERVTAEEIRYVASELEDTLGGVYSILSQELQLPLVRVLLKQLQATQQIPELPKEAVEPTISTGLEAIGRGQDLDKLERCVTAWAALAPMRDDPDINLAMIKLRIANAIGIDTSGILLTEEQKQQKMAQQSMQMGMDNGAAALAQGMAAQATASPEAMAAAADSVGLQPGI

Molecule | binding [5] | binding [6] | other results
capsid shell protein gp10 of bacteriophage T7 (from UniProt P19726 1-345) |  |  | binding [1]: binds; binding [2]: binds
portal protein gp8 of bacteriophage T7 (natural protein, Escherichia coli bacteriophage T7, UniProt P03728 1-536, looked up, portal protein gp8, Escherichia coli bacteriophage T7; domains clip (294-334), stem (335-356 and 269-293), wing (1-268, 357-427), crown (428-492), C-terminal helical barrel; Native protein in the virion; dodecamer at one vertex; The C-terminal barrel is not seen in capsid II; also called T7 portal; source: in mature T7 phage and T7 capsid II particles purified from cells; copies: 12) MAEKRTGLAEDGAKSVYERLKNDRAPYETRAQNCAQYTIPSLFPKDSDNASTDYQTPWQAVGARGLNNLASKLMLALFPMQTWMRLTISEYEAKQLLSDPDGLAKVDEGLSMVERIIMNYIESNSYRVTLFEALKQLVVAGNVLLYLPEPEGSNYNPMKLYRLSSYVVQRDAFGNVLQMVTRDQIAFGALPEDIRKAVEGQGGEKKADETIDVYTHIYLDEDSGEYLRYEEVEGMEVQGSDGTYPKEACPYIPIRMVRLDGESYGRSYIEEYLGDLRSLENLQEAIVKMSMISSKVIGLVNPAGITQPRRLTKAQTGDFVTGRPEDISFLQLEKQADFTVAKAVSDAIEARLSFAFMLNSAVQRTGERVTAEEIRYVASELEDTLGGVYSILSQELQLPLVRVLLKQLQATQQIPELPKEAVEPTISTGLEAIGRGQDLDKLERCVTAWAALAPMRDDPDINLAMIKLRIANAIGIDTSGILLTEEQKQQKMAQQSMQMGMDNGAAALAQGMAAQATASPEAMAAAADSVGLQPGI |  |  | binding [3]: binds; binding [4]: binds
nozzle protein gp12 of bacteriophage T7 (natural protein, Escherichia coli bacteriophage T7, UniProt P03747 1-794, looked up, nozzle protein gp12, Escherichia coli bacteriophage T7; Native protein in the virion; hexameric tube; source: in mature T7 phage purified from cells) MALISQSIKNLKGGISQQPDILRYPDQGSRQVNGWSSETEGLQKRPPLVFLNTLGDNGALGQAPYIHLINRDEHEQYYAVFTGSGIRVFDLSGNEKQVRYPNGSNYIKTANPRNDLRMVTVADYTFIVNRNVVAQKNTKSVNLPNYNPNQDGLINVRGGQYGRELIVHINGKDVAKYKIPDGSQPEHVNNTDAQWLAEELAKQMRTNLSDWTVNVGQGFIHVTAPSGQQIDSFTTKDGYADQLINPVTHYAQSFSKLPPNAPNGYMVKIVGDASKSADQYYVRYDAERKVWTETLGWNTEDQVLWETMPHALVRAADGNFDFKWLEWSPKSCGDVDTNPWPSFVGSSINDVFFFRNRLGFLSGENIILSRTAKYFNFYPASIANLSDDDPIDVAVSTNRIAILKYAVPFSEELLIWSDEAQFVLTASGTLTSKSVELNLTTQFDVQDRARPFGIGRNVYFASPRSSFTSIHRYYAVQDVSSVKNAEDITSHVPNYIPNGVFSICGSGTENFCSVLSHGDPSKIFMYKFLYLNEELRQQSWSHWDFGENVQVLACQSISSDMYVILRNEFNTFLARISFTKNAIDLQGEPYRAFMDMKIRYTIPSGTYNDDTFTTSIHIPTIYGANFGRGKITVLEPDGKITVFEQPTAGWNSDPWLRLSGNLEGRMVYIGFNINFVYEFSKFLIKQTADDGSTSTEDIGRLQLRRAWVNYENSGTFDIYVENQSSNWKYTMAGARLGSNTLRAGRLNLGTGQYRFPVVGNAKFNTVYILSDETTPLNIIGCGWEGNYLRRSSGI | binds |  | 
adaptor protein gp11 of bacteriophage T7 (natural protein, Escherichia coli bacteriophage T7, UniProt P03746 1-196, looked up, adaptor protein gp11, Escherichia coli bacteriophage T7; Native protein in the virion; dodecameric ring; also called tail adaptor; source: in mature T7 phage purified from cells; copies: 12) MRSYDMNVETAAELSAVNDILASIGEPPVSTLEGDANADAANARRILNKINRQIQSRGWTFNIEEGITLLPDVYSNLIVYSDDYLSLMSTSGQSIYVNRGGYVYDRTSQSDRFDSGITVNIIRLRDYDEMPECFRYWIVTKASRQFNNRFFGAPEVEGVLQEEEDEARRLCMEYEMDYGGYNMLDGDAFTSGLLTR |  | binds | 
tail fiber gp17 of bacteriophage T7 (natural protein, Escherichia coli bacteriophage T7, UniProt P03748 1-553, looked up, tail fiber protein gp17, Escherichia coli bacteriophage T7; only the N-terminus (a jelly-roll barrel and a 22-residue alpha-helix) was resolved; Native protein in the virion; six trimers a phage; The distal parts of the fibers were too flexible to be resolved; source: in mature T7 phage purified from cells) MANVIKTVLTYQLDGSNRDFNIPFEYLARKFVVVTLIGVDRKVLTINTDYRFATRTTISLTKAWGPADGYTTIELRRVTSTTDRLVDFTDGSILRAYDLNVAQIQTMHVAEEARDLTTDTIGVNNDGHLDARGRRIVNLANAVDDRDAVPFGQLKTMNQNSWQARNEALQFRNEAETFRNQAEGFKNESSTNATNTKQWRDETKGFRDEAKRFKNTAGQYATSAGNSASAAHQSEVNAENSATASANSAHLAEQQADRAEREADKLENYNGLAGAIDKVDGTNVYWKGNIHANGRLYMTTNGFDCGQYQQFFGGVTNRYSVMEWGDENGWLMYVQRREWTTAIGGNIQLVVNGQIITQGGAMTGQLKLQNGHVLQLESASDKAHYILSKDGNRNNWYIGRGSDNNNDCTFHSYVHGTTLTLKQDYAVVNKHFHVGQAVVATDGNIQGTKWGGKWLDAYLRDSFVAKSKAWTQVWSGSAGGGVSVTVSQDLRFRNIWIKCANNSWNFFRTGPDGIYFIASDGGWLRFQIHSNGLGFKNIADSRSVPNAIMVENE | binds | binds | 
